From the supplement of paper PMC9135407 come the findings set out here.

Several values for one entry are separate records, joined by “and”; a condition that tells them apart may be missing. Equal entries are not always repeated. Structures can show the parent of a compound that is named as a salt. ± gives the standard deviation of the averaged measurements. This is one part of the list. Part of the spread comes from offsets between plates or batches.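 Assay uses culture-activated primary human stellate myofibroblasts; lipid droplet recovery indicates inactivation. Measured: proportion of Hoechst-counted cells over a plate-specific Bodipy cutoff, duplicate wells, DMSO and nortriptyline as per-plate negative and positive controls. A hit scores, control-normalized, above the plate's top-tenth-percentile nortriptyline wells or ranks among its three best wells. Final well concentrations not reported.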

In this test the test system is primary human hepatic stellate cells (donor 1). As to the kind of experiment: percent Bodipy-positive cells; higher = more lipid droplet accumulation. Particulars: 48 h.
The mark [1] stands for this setting: library stock concentration: 80 uM.
Where [2] appears, read: library stock concentration: 3.33 mM.
[3] abbreviates: library stock concentration: 10 mM.
The mark [4] stands for this setting: library stock concentration: 1 mM.

As for `c1ccc2c(CCNc3ccc(Nc4ccncc4)cc3)c[nH]c2c1`, the “percent Bodipy-positive cells” value runs as follows: under setting [1], 27.7 ± 12%; (library stock concentration: 400 uM) 31.1 ± 2.3%; (library stock concentration: 2 mM) 34.9 ± 7.9%; under setting [2], 37.4 ± 4.7%.
On to `COc1ccc2c(Oc3ccc(NC(=O)c4c(C)n(CC(C)(C)O)n(-c5ccccc5)c4=O)nc3)ccnc2c1`, for which the “percent Bodipy-positive cells” value runs as follows: under setting [2], 9.08 ± 3.5%; under setting [3], 10.4 ± 1.6%.
For the compound `COc1c(C)cnc(Cn2cnc3c(Cl)nc(N)nc32)c1C`, the “percent Bodipy-positive cells” value under setting [3] was determined as 70.2 ± 0.83%.
With `CN(C)C(=N)NC(=N)N` [Metformin hydrochloride], the “percent Bodipy-positive cells” value is 27.5 ± 4.6%. Moreover, the “percent Bodipy-positive cells” value under setting [3] was 39.3 ± 4.5%. Further, under “library stock concentration: 12.1 mM”, the “percent Bodipy-positive cells” value is 17.4 ± 4.9%.
Regarding `CN(C)C(=N)NC(=N)N` [Metformin], the “percent Bodipy-positive cells” value (library stock concentration: 15.5 mM) was determined as 7.49 ± 2.1%.
For the compound `Cc1csc(-c2nnc(Nc3ccc(Oc4ncccc4-c4ccnc(N)n4)cc3)c3ccccc23)c1`, the “percent Bodipy-positive cells” value under setting [2] turned out to be 8.66 ± 1.2% and the “percent Bodipy-positive cells” value under setting [3] was determined as 15.1 ± 3.6%.
For the compound `Nc1nc2c(ncn2COC(CO)CO)c(=O)[nH]1` [Ganciclovir], the “percent Bodipy-positive cells” value was 8.34 ± 0.19%. Besides, the “percent Bodipy-positive cells” value under setting [2] is 10.9 ± 5.3%. Further, under “library stock concentration: 7.8 mM”, the “percent Bodipy-positive cells” value came out at 9.84 ± 1.3%. Also, the “percent Bodipy-positive cells” value under setting [3] was 19.6% and 33%.
For the compound `CCCCCCCCCCCCCCCC(=O)OC[C@H](O)[C@H]1OC(=O)C(O)=C1O` [Ascorbyl palmitate], for the setting “library stock concentration: 4.8 mM”, the “percent Bodipy-positive cells” value stood at 2.27 ± 0.65%.
Consider `CCCCC[C@H](O)/C=C/[C@H]1C2CC(CO2)[C@@H]1C/C=C/CCCC(=O)O` (some centres undefined), for which the “percent Bodipy-positive cells” value under setting [4] is 18.9 ± 8%.
As for `Cc1ccc(NC(=O)NCCSCc2ccc(CN(C)C)o2)cc1Cl`, the “percent Bodipy-positive cells” value under setting [3] turned out to be 86.5 ± 2.1%.
For `COc1ccc(C2(O)OC(=O)C(c3ccc4c(c3)OCO4)=C2Cc2cc(OC)c(OC)c(OC)c2)cc1` (centres undefined), the “percent Bodipy-positive cells” value under setting [3] was determined as 28.3 ± 2.1%.
For the compound `CCCCCCCCCCCCCCCCOC[C@H](COP(=O)([O-])OCCCCCC[N+](C)(C)C)OC(C)=O` [Hexanolamino PAF C-16], the “percent Bodipy-positive cells” value under setting [4] worked out at 13.5 ± 1.5%.
Regarding `N#C/C(=C\c1ccc(O)c(O)c1)C(=O)NCCCCc1ccccc1`, the “percent Bodipy-positive cells” value under setting [3] was found to be 6.59 ± 1.2%.
Take `Cc1noc(NS(=O)(=O)c2cccc3c(N(C)C)cccc23)c1C`: the “percent Bodipy-positive cells” value under setting [3] is 7.16 ± 0.48%.
Take `CCCCCC/C=C\CCCC(=O)CC(=O)N[C@H]1CCOC1=O` [N-3-oxo-tetradec-7(Z)-enoyl-L-Homoserine lactone]: the “percent Bodipy-positive cells” value under setting [4] was 13.4 ± 1.8%.
Regarding `CC[C@@H](CO)Nc1nc(NCc2ccc(-c3ccccn3)cc2)c2ncn(C(C)C)c2n1` [CR8, (S)-Isomer], under setting [2], the “percent Bodipy-positive cells” value is 31.9 ± 3.5%.
Consider `CCN(CC)C(=O)c1ccc(O)c(OC)c1` [Ethamivan], for which the “percent Bodipy-positive cells” value turned out to be 22 ± 4.7%. Besides, the “percent Bodipy-positive cells” value (library stock concentration: 9 mM) was 4.09 ± 1.9%.
Regarding `CCN(CC)C(=O)c1ccc(O)c(OC)c1` [Vanillic acid diethylamide], the “percent Bodipy-positive cells” value under setting [3] was found to be 27.5 ± 6.6%.
Regarding `CN(C)c1ccc(-c2nc3c(N4CCN(CC(=O)Nc5nccs5)CC4)c(Cl)cnc3[nH]2)cc1`, the “percent Bodipy-positive cells” value under setting [2] amounted to 86.51 ± 0.13% and the “percent Bodipy-positive cells” value under setting [3] amounted to 96.8 ± 2%.
Regarding `NC1(C(=O)O)CC1` [1-Aminocyclopropanecarboxylic acid hydrochloride], the “percent Bodipy-positive cells” value under setting [3] amounted to 46.16 ± 0.26%.
Consider `COc1ccc(-c2cc(=O)c3c(O)c(OC)c(OC)c(OC)c3o2)cc1` [Gardenin b], for which the “percent Bodipy-positive cells” value under setting [3] amounted to 57.2 ± 20%.
`C[C@H]1[C@H](C)CC[C@]2(C(=O)O)CC[C@]3(C)C(=CC[C@@H]4[C@@]5(C)CC[C@H](O)C(C)(C)[C@@H]5CC[C@]43C)[C@H]12` [Ursolic acid]: the “percent Bodipy-positive cells” value stood at 22.2 ± 1.8%.
On to `C[C@H]1[C@H](C)CC[C@]2(C(=O)O)CC[C@]3(C)C(=CC[C@@H]4[C@@]5(C)CC[C@H](O)C(C)(C)[C@@H]5CC[C@]43C)[C@H]12` [Ursolic Acid], for which the “percent Bodipy-positive cells” value runs as follows: under setting [2], 5.38 ± 1.8%; under setting [3], 10.6 ± 0.74%.
In the case of `O=C(c1ccc(F)cc1)C1CCN(CCn2c(=O)[nH]c3ccccc3c2=O)CC1` [Ketanserin tartrate hydrate], the “percent Bodipy-positive cells” value was determined as 35.9 ± 4.1%.
`O=C(c1ccc(F)cc1)C1CCN(CCn2c(=O)[nH]c3ccccc3c2=O)CC1` [Ketanserin]: the “percent Bodipy-positive cells” value by setting is: under setting [2], 7.772 ± 0.071%; under setting [3], 32 ± 14%.
Regarding `O=C(c1ccc(F)cc1)C1CCN(CCn2c(=O)[nH]c3ccccc3c2=O)CC1` [Ketanserin tartrate], the “percent Bodipy-positive cells” value by setting is: (library stock concentration: 5.1 mM) 19.4% and 2.16%; under setting [3], 41.1% and 39.9% and 18.7%.
Consider `NC(=O)Nc1cc(-c2cccc(F)c2)sc1C(=O)N[C@H]1CCCNC1`, for which the “percent Bodipy-positive cells” value is, setting by setting: under setting [1], 10.5 ± 5%; under setting [3], 97.3% and 84.8% and 100%.
As to `CC(=O)N[C@@H](CSC/C=C(\C)CC/C=C(\C)CCC=C(C)C)C(=O)O` [Acetyl (N)-s-farnesyl-l-cysteine], the “percent Bodipy-positive cells” value (library stock concentration: 13.6 mM) came to 15.6 ± 6.2%.
As for `CC(=O)N[C@@H](CSC/C=C(\C)CC/C=C(\C)CCC=C(C)C)C(=O)O` [N-acetyl-S-farnesyl-L-Cysteine], the “percent Bodipy-positive cells” value under setting [4] worked out at 9.58 ± 1.9%.
Take `Cc1nc2c(-c3cnc(N)nc3)nc(N3CCOCC3)nc2n1C(C)C`: the “percent Bodipy-positive cells” value runs as follows: under setting [2], 6.05 ± 0.88%; under setting [3], 39.2 ± 6.6%.
Take `Nc1nccc(Oc2ccc(NC(=O)c3c[nH]cc(-c4ccc(F)cc4)c3=O)cc2F)c1Cl`: the “percent Bodipy-positive cells” value under setting [2] is 8.6 ± 0.3% and the “percent Bodipy-positive cells” value under setting [3] was found to be 25.2 ± 1.8%.
Regarding `CC(=O)[C@@]1(O)CC[C@H]2[C@@H]3CCC4=CC(=O)CC[C@]4(C)[C@H]3CC[C@@]21C`, the “percent Bodipy-positive cells” value under setting [3] came out at 35.5 ± 1.6%.
As for `CC(=O)[C@@]1(O)CC[C@H]2[C@@H]3CCC4=CC(=O)CC[C@]4(C)[C@H]3CC[C@@]21C` [17alpha-hydroxyprogesterone], under setting [3], the “percent Bodipy-positive cells” value was 38.6 ± 16%.
Turning to `COc1ccc(S(=O)(=O)N(CCO)c2ccccc2CN(C)CC=Cc2ccc(Cl)cc2)cc1.O=P(=O)OO.[H]` [KN-93 Phosphate], the “percent Bodipy-positive cells” value under setting [3] is 97.77 ± 0.68%.
Still for that read-out and setting: as for `Cl.N[C@@H](CCC(=O)O)C(=O)O` [L-Glutamic acid hydrochloride], the figure is 36.7 ± 14%.
On to `O=C1C[C@@H]2[C@@H](CC[C@@H](O)CCc3ccccc3)[C@H](O)C[C@@H]2O1` [Latanoprost Lactone Diol], for which the “percent Bodipy-positive cells” value under setting [4] was determined as 8.903 ± 0.042%.
For the compound `O=C1NCC2(CCN(CCc3ccccc3)CC2)O1` [Fenspiride hydrochloride], the “percent Bodipy-positive cells” value came to 46 ± 17%. Further, the “percent Bodipy-positive cells” value (library stock concentration: 6.7 mM) was 16.4 ± 0.6%. Further, the “percent Bodipy-positive cells” value under setting [3] is 30% and 53.9%.
For `O=C1NCC2(CCN(CCc3ccccc3)CC2)O1` [Fenspiride HCl], the “percent Bodipy-positive cells” value was found to be 7.93 ± 2.1% under setting [2] and 16.9 ± 4.8% under setting [3].
Take `COc1ccc(/C=C/C(=O)Nc2c(O)cccc2C(=O)O)cc1OC`: the “percent Bodipy-positive cells” value under setting [4] was 18 ± 11%.
Regarding `Clc1ccc2c(c1)CCc1cccnc1C2=C1CCNCC1` [Desloratadine], the “percent Bodipy-positive cells” value came to 51.4 ± 4.5% under setting [2] and 95.9 ± 3% under setting [3].
For `Clc1ccc2c(c1)CCc1cccnc1C2=C1CCNCC1` [Desloratidine], where the note is “library stock concentration: 6.4 mM”, the “percent Bodipy-positive cells” value was 60.9 ± 2.2%.
Regarding `COC(=O)c1ccc2c(c1)NC(=O)/C2=C(\Nc1ccc(N(C)C(=O)CN2CCN(C)CC2)cc1)c1ccccc1` [Intedanib (BIBF 1120, Vargatef) (10 mM)], under setting [3], the “percent Bodipy-positive cells” value was 88.66 ± 0.034%.
